PubChem BioAssay AID1671195, Yale University, 2021

- Purpose: 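Genes whose knockdown alters LDL uptake in liver cancer cells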 (primary screen)
- System: human Huh7 hepatoma cells
- Reagent: siRNA pool against human genes, 18 nM
- Time to read-out: about 2 to 2.5 days of knockdown, then 8 h LDL uptake
- Treatment: DiI-labelled LDL at 30 µg/ml for 8 h, in lipoprotein-deficient serum medium
- Detection: 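Fluorescent LDL signal imaged in cells, scaled to the plate median, robust z-score for each replicate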
- Scale: robust z-score: higher = more LDL uptake after knockdown
- Active means: 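Active when two or more replicates show a robust z-score above 2 or below -2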
The deposit covers about 22,000 reagents; this is a part drawn at random. About 1,510 of them (6.9%) count as active. 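Active includes knockdowns raising or lowering LDL uptake; positive z-scores mean more uptake, negative mean less.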

no.	target gene	robust z-score, replicate 1	robust z-score, replicate 2	robust z-score, replicate 3	outcome
1	TRPM4	0.652	-0.66	-0.333	inactive
2	TGFBR3	-1.13	-0.81	-0.975	inactive
3	ELMOD1	-1.59	-0.7	-1.5	inactive
4	SUMF2	1.29	1.33	1.2	inactive
5	SLC26A10P	-0.159	-0.329	0.345	inactive
6	STOX1	-0.456	-0.637	-0.716	inactive
7	OR7A10	-0.282	-0.134	0.0238	inactive
8	ITGB1	-0.621	-1.33	0.0374	inactive
9	GNA11	0.217	0.194	0.114	inactive
10	TMEM87A	1.42	0.303	1.66	inactive
11	SREBF1	1.01	0.906	0.894	inactive
12	MLANA	-0.0493	0.647	-1.16	inactive
13	ZNF429	-0.849	-0.932	-1.14	inactive
14	THBS1	-0.275	-0.106	0.597	inactive
15	CD164	0.576	0.543	0.057	inactive
16	PPP6R1	0.786	0.764	1.31	inactive
17	NWD1	0.0978	0.525	0.56	inactive
18	LOC402253 (retired record)	0.293	0.799	0.431	inactive
19	PLEKHN1	0.0253	0.84	0.362	inactive
20	HIF1AN	0.189	0.194	-0.215	inactive
21	PLXNB2	-0.508	-0.581	-0.973	inactive
22	PCDH9	0.301	0.723	0.85	inactive
23	RFC2	1.97	1.7	1.04	inactive
24	FRMD7	-1.38	-1.45	-0.977	inactive
25	KRT3	-1.21	-0.647	-1.32	inactive
26	GLYCTK	-0.314	0.078	0.2	inactive
27	KIDINS220	0.14	1.36	0.214	inactive
28	KBTBD8	-0.223	-0.0142	-0.208	inactive
29	WDR49	-1.46	-1.24	-1.56	inactive
30	RPL19P20	-0.389	0.205	0.337	inactive
31	USP50	-0.162	0.2	-0.115	inactive
32	DLC1	0.934	0.898	0.651	inactive
33	SCAF1	0.462	0.0196	-0.368	inactive
34	DLX3	-1.57	-1.29	-2.1	inactive
35	POLN	3.53	2.64	3.39	active
36	DET1	0.866	-0.101	1.43	inactive
37	TMEM86B	-1.61	-2.45	2.89	inactive
38	TGM5	0.816	0.398	0.741	inactive
39	CFP	4.19	3.13	3.43	active
40	UGT2A3	-0.705	-0.575	-0.368	inactive
41	TMEM259	-0.517	-0.84	0.185	inactive
42	INSM1	1.27	-0.136	0.412	inactive
43	RASIP1	-0.0361	-0.254	0.395	inactive
44	RPL36A	-0.863	-0.412	0.0297	inactive

Continued (4 carried over from the part before).
no.	target gene	robust z-score, replicate 1	robust z-score, replicate 2	robust z-score, replicate 3	outcome
41	TMEM259	-0.517	-0.84	0.185	inactive
42	INSM1	1.27	-0.136	0.412	inactive
43	RASIP1	-0.0361	-0.254	0.395	inactive
44	RPL36A	-0.863	-0.412	0.0297	inactive
45	OPHN1	-0.32	-0.0253	-0.408	inactive
46	A1BG	0.466	-0.719	-0.774	inactive
47	GSR	0.753	1	1.08	inactive
48	NCALD	-0.0881	-0.388	0.0403	inactive
49	SPSB4	-0.271	-0.208	0.822	inactive
50	FHIP2A	0.802	1.6	1.74	inactive
51	APOBEC3D	-0.615	-0.652	-0.255	inactive
52	GAL3ST2	0.208	0.0163	-0.195	inactive
53	FOXJ3	-0.635	-0.753	-0.509	inactive
54	CELF2	3.5	3	2.99	inactive
55	STK17A	-0.382	-1.53	-0.284	inactive
56	PTCH1	0.0992	-1.56	-0.359	inactive
57	SHISA7	-0.699	-0.938	-0.35	inactive
58	LYPLA2	-1.02	-0.795	-0.405	inactive
59	H2BC18	-0.69	-0.411	-0.251	inactive
60	SLC45A3	-0.308	-0.0118	-0.0253	inactive
61	LOC388927 (retired record)	1.04	1.06	1.06	inactive
62	OR7C1	1.91	0.395	1.41	inactive
63	P2RY8	-0.00469	0.048	0.787	inactive
64	POLR2M	-0.397	0.295	0.421	inactive
65	METTL4	1.64	1.75	1.03	inactive
66	OR4S1	-0.111	0.349	0.117	inactive
67	CIART	-0.532	-0.159	-0.677	inactive
68	ATP13A3-DT	-1.91	-1.98	-1.94	inactive
